Assay results as given in patent publication US20240076315A1, “KHL POLYPEPTIDE, AND USE THEREOF IN PREPARATION OF TABP-EIC CELL” (priority 2021, published 2024).
Results are given in words; binding and its absence hold for the method and conditions named. Some entries that bind do so weakly or less than the wild type.

Protein sequences, listed by entry. Tags and fused reporters are not part of them. Residues count along the entry.
UniProt Q04609, residues 44-750: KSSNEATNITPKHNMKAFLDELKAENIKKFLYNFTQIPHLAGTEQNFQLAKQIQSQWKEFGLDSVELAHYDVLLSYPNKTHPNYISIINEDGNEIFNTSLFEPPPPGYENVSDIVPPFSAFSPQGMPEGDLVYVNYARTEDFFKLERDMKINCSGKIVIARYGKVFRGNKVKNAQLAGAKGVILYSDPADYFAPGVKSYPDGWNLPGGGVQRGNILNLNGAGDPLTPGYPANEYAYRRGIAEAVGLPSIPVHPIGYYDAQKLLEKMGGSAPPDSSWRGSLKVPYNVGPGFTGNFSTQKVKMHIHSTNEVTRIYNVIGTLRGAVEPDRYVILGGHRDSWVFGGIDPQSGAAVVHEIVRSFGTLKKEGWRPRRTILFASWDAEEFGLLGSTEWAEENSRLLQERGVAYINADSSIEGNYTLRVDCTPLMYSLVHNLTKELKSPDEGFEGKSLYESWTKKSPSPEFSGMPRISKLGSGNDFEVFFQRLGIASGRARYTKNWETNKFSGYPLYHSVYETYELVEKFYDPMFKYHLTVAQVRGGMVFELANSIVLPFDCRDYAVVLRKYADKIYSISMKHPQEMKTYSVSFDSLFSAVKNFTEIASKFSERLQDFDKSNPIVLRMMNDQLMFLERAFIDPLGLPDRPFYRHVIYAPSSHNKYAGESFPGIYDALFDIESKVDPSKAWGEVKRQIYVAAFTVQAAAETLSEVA

Target: PSMA (Prostate Specific Membrane Antigen) (UniProt Q04609)
Test: phage display panning, Ph.D.-12 peptide library, three rounds on coated target

binding: binds
Binder: KHLHYHSSVRYG [peptide KHL]
